Measured values taken from publication PMC8786944.
No constants are given. Whether binding was seen depends on the method and setting. In cells and extracts the contact can be indirect. Some results given as binding are weak or reduced against the parent protein; the word gives no strength. Tags and fused reporters may be left off the sequences shown. One block for each molecule: values may come before it.

Sequences of proteins named here, by UniProt entry; tags and fusion partners are left off. A change or cut given only in a name is not applied to a line headed by its entry. A line that says so, or that is headed by a name, gives the form on record, which may keep a tag or linker.
Nogo-B (neurite outgrowth inhibitor B)-flag (Q9NQC3-2, form named): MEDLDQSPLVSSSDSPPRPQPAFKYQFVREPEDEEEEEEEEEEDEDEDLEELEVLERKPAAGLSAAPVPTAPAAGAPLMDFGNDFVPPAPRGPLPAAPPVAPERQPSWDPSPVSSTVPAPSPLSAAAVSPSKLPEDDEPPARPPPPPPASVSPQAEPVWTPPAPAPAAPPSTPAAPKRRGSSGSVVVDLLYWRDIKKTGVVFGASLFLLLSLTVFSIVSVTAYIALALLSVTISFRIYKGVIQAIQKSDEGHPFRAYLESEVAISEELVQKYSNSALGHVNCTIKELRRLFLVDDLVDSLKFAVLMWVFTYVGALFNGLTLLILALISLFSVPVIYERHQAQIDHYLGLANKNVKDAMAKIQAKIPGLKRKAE

Columns and labels:
[1] = molecular target: T1, NgR3-myc (UniProt Q86UN2); test: co-IP; lysates of HEK293T cells transfected with NgR3-myc and Nogo-B-flag; IP with anti-flag or anti-myc antibody on Protein A/G beads at 4 °C overnight; five washes with cold IP buffer; Western blotting
T1 sequence: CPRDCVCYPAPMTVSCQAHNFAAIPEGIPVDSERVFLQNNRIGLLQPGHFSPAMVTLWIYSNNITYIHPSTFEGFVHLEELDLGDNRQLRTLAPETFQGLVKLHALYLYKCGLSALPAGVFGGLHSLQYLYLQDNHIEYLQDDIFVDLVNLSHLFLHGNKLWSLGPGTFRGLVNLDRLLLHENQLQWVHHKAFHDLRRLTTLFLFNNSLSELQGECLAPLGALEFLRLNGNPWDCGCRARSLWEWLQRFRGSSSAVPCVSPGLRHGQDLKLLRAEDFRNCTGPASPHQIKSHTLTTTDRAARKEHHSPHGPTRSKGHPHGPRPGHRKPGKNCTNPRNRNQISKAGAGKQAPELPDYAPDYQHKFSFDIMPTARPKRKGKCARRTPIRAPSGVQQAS

[2] = molecular target: Nogo-B (neurite outgrowth inhibitor B)-flag (human) (UniProt Q9NQC3); test: as above

binding [1]: binds
Molecule: Nogo-B (neurite outgrowth inhibitor B)-flag (from UniProt Q9NQC3-2 1-373)

binding [2]: binds
B1: NgR3-myc (receptor, UniProt Q86UN2 25-420)
chain: T1 sequence
